Test results from patent EP2330125A2 (priority 2005, dated 2007).
Where two headings read alike, the source gives them in different places. At least one peptide structure holds a part that was inferred or is arguable (an end, a ring closure or a residue). Ends that are not written are not given here.

What was measured:
[1] = format: in vivo, NIH/Swiss mice
[2] = format: in vivo, Sprague-Dawley rat (Levin DIO rats); settings: rat DIO, infusion 300 nmol/kg/d

CC[C@H](C)[C@H](NC(=O)[C@H](Cc1ccccc1)NC(=O)[C@H](CC(C)C)NC(=O)[C@H](CCCNC(=N)N)NC(=O)[C@@H](NC(=O)[C@H](C)NC(=O)[C@H](CCC(=O)O)NC(=O)[C@H](CCC(=O)O)NC(=O)[C@H](CCC(=O)O)NC(=O)[C@H](CC(C)C)NC(=O)[C@H](CCC(N)=O)NC(=O)[C@H](CCCCN)NC(=O)[C@H](CO)NC(=O)[C@H](CC(C)C)NC(=O)[C@H](CC(=O)O)NC(=O)[C@H](CO)NC(=O)[C@@H](NC(=O)[C@H](Cc1ccccc1)NC(=O)[C@H](C)NC(=O)CNC(=O)[C@H](CCC(=O)O)NC(=O)CNC(=O)[C@@H](N)Cc1c[nH]cn1)[C@@H](C)O)C(C)C)C(=O)N[C@@H](CCC(=O)O)C(=O)N[C@@H](Cc1ccccc1)C(=O)N[C@@H](CC(C)C)C(=O)N[C@@H](CCCCN)C(=O)N[C@@H](CC(N)=O)C(N)=O
Mouse Food Intake % basal, column headed Dose ([1]; dose and time point not printed in these rows): -49 % basal

CSCC[C@H](NC(=O)[C@H](Cc1ccc(OS(=O)(=O)O)cc1)NC(=O)[C@@H](N)CC(=O)O)C(=O)NCC(=O)N[C@@H](Cc1c[nH]c2ccccc12)C(=O)N[C@@H](CCSC)C(=O)N[C@@H](CC(=O)O)C(=O)N[C@@H](Cc1ccccc1)C(N)=O [CCK8 sulfated Tyr]
percent inhibition of food intake ([1]; 3 nmol/kg, 30 min): 49%
percent inhibition of food intake ([1]; 3 nmol/kg, 60 min): 26%
percent inhibition of food intake ([1]; 3 nmol/kg, 120 min): 0%
percent inhibition of food intake ([1]; 10 nmol/kg, 30 min): 92%
percent inhibition of food intake ([1]; 10 nmol/kg, 60 min): 56%
percent inhibition of food intake ([1]; 10 nmol/kg, 120 min): 27%
percent inhibition of food intake ([1]; 30 nmol/kg, 30 min): 92%
percent inhibition of food intake ([1]; 30 nmol/kg, 60 min): 73%
percent inhibition of food intake ([1]; 30 nmol/kg, 120 min): 43%
percent inhibition of food intake ([1]; 100 nmol/kg, 30 min): 100%
percent inhibition of food intake ([1]; 100 nmol/kg, 60 min): 78%
percent inhibition of food intake ([1]; 100 nmol/kg, 120 min): 59%

FLFHYSKTQKLGKSNVVEELQSPFASQSRGYFLFRPRN-NH2 [FN-38]
percent inhibition of body weight ([2]; Day 2): 3.7%
percent inhibition of body weight ([2]; Day 7): 2.7%
